Binding data for two molecules are collected here from PMC10669178.

Substitutions are numbered along the chain they refer to. Numbers in names are those of the source. No constants are given. Whether binding was seen depends on the method and setting. Binding seen in cells or lysates may run through a third protein. Some entries that bind do so weakly or less than the wild type. Where a sequence is shown, tags or fusion partners need not be part of it.

The target in experiment [1] is T1, His-tagged bZP3 (32–178) (bovine) (UniProt P48830).
T1 sequence: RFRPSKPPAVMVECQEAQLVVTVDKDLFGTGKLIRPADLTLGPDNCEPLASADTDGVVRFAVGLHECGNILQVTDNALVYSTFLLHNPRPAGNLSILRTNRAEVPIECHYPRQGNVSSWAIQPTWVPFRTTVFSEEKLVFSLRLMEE
In words: pull-down; His-tagged bZP3 fragment and FLAG-tagged bZP4 fragment co-expressed in Sf9 cells (mixture of recombinant viruses, 48 h, 27 °C); complex recovered from the culture supernatant on TALON metal affinity resin by the His-tag of the bZP3 fragment; SDS-PAGE, silver-stained.

The target of experiment [2] is T2, His-tagged bZP3 (32–178) N146D (bovine) (UniProt P48830).
T2 sequence: T1 sequence with N115D
The experiment is described as above.

B1: FLAG-tagged bZP4 (136–464) (domain or fragment, UniProt Q9BH11 136-464)
chain: DVPNAGLCDSVPVWDRLPCAPSPITQGDCKQLGCCYNSEEVISCYYGNTVTSHCTQDGHFSIAVSRNVTSPPLLLNSVHLAFRNDSECKPVMATHTFVLFRFPFTTCGTTKQITGKQAVYENELVAARDVRTWSRGSITRDSTFRLQVSCSYSASSSALPVNVQVLTLPPPLPETQPGNLTLELKIAKDKRYRSYYTASDYPVVKLLRDPIYVEVSIHQRTDPSLELRLDQCWATPGADALLQPQWPLLVNGCPYTGDNYQTKLIPVWEASDLPFPSHYQRFSISTFSFVDSVAKRALKGPVYLHCSASVCQPAGTPSCVTLCPARRRR
For the molecule B1, the binding result in experiment [1] and in experiment [2] was “binds” in each case.

B2: FLAG-tagged bZP4 (136–464) N314D (domain or fragment, UniProt Q9BH11 136-464)
chain: B1 chain with N179D
In the case of B2, the binding entry in experiment [1] and in experiment [2] was “binds” each time.
